Variants at the background level are over-represented here.
Experiments:
biotinyl-Trp-oxazolone = test: self-aminoacylation, catalytic enhancement (BWO) (fold over background); higher = more active; k-Seq, kA / k0A0; sequences stand for … in GGGAAUGGAUCCACAUCUACGAAUUC…UUCACUGCAGACUUGACGAAGCUG
In short: (§1)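 Mutagenized RNA pools with a 21-nt variable region (0.43 μM) reacted with each biotinyl-aminoacyl-oxazolone at 2–1250 μM. Reactions ran in 50 μL HEPES/NaCl/KCl/MgCl2/CaCl2 buffer with 5% acetonitrile, pH 6.9–7.0, for 90 minutes at room temperature. Streptavidin-captured RNA was quantified by triplicate qPCR and Illumina sequencing, and per-sequence fraction reacted was fit to a pseudo-first-order model with 1000 bootstraps. Catalytic enhancement is median kA divided by the uncatalyzed rate, the low-activity peak of a bimodal Gaussian fit.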

biotinyl-Leu-oxazolone = test: self-aminoacylation, catalytic enhancement (BLO) (fold over background); higher = more active; k-Seq, kA / k0A0; sequences stand for … in GGGAAUGGAUCCACAUCUACGAAUUC…UUCACUGCAGACUUGACGAAGCUG
In short: as §1

biotinyl-Val-oxazolone = test: self-aminoacylation, catalytic enhancement (BVO) (fold over background); higher = more active; k-Seq, kA / k0A0; sequences stand for … in GGGAAUGGAUCCACAUCUACGAAUUC…UUCACUGCAGACUUGACGAAGCUG
In short: as §1

biotinyl-Ile-oxazolone = test: self-aminoacylation, catalytic enhancement (BIO) (fold over background); higher = more active; k-Seq, kA / k0A0; sequences stand for … in GGGAAUGGAUCCACAUCUACGAAUUC…UUCACUGCAGACUUGACGAAGCUG
In short: as §1

biotinyl-Met-oxazolone = test: self-aminoacylation, catalytic enhancement (BMO) (fold over background); higher = more active; k-Seq, kA / k0A0; sequences stand for … in GGGAAUGGAUCCACAUCUACGAAUUC…UUCACUGCAGACUUGACGAAGCUG
In short: as §1

biotinyl-Phe-oxazolone = test: self-aminoacylation, catalytic enhancement (BFO) (fold over background); higher = more active; k-Seq, kA / k0A0; sequences stand for … in GGGAAUGGAUCCACAUCUACGAAUUC…UUCACUGCAGACUUGACGAAGCUG
In short: as §1

Row | Sequence | self-aminoacylation (biotinyl-Trp-oxazolone) | self-aminoacylation (biotinyl-Leu-oxazolone) | self-aminoacylation (biotinyl-Val-oxazolone) | self-aminoacylation (biotinyl-Ile-oxazolone) | self-aminoacylation (biotinyl-Met-oxazolone) | self-aminoacylation (biotinyl-Phe-oxazolone)
1 | CCACACUUGAAGCAAUCAGUC [Fam1B.1 aminoacylation ribozyme variant] | 0.437 | 0.56 | 0.512 | 0.564 | 0.416 | 0.939
2 | CCACACUUGAUGCAAUCGGUC [Fam1B.1 aminoacylation ribozyme variant] | 0.818 | 0.782 | 1.01 | 0.823 | 0.891 | 0.817
3 | CCACACUUGGAGCAAUCGGUC [Fam1B.1 aminoacylation ribozyme variant] | 1.36 | 0.863 | 1.25 | 1.21 | 0.838 | 0.829
4 | CCACACUUUAACCAAUCGGUC [Fam1B.1 aminoacylation ribozyme variant] | 1.03 | 0.749 | 1 | 0.901 | 0.761 | 1.39
5 | CCACACUUUAAGCAAUCGAUC [Fam1B.1 aminoacylation ribozyme variant] | 0.507 | 0.461 | 0.659 | 0.569 | 0.496 | 0.947
6 | CCACACUUUAAGCAAUCGUUC [Fam1B.1 aminoacylation ribozyme variant] | 0.575 | 0.543 | 0.849 | 0.669 | 0.566 | 0.911
7 | CCACAGUGCAAGCAAUCGGUC [Fam1B.1 aminoacylation ribozyme variant] | 0.903 | 1.13 | 1.22 | 1.09 | 1.02 | 0.719
8 | CCACAGUUCAAGCAAGCGGUC [Fam1B.1 aminoacylation ribozyme variant] | 0.602 | 0.952 | 1.11 | 1.17 | 1.25 | 0.797
9 | CCACAGUUCAAGCAAUCGGAC [Fam1B.1 aminoacylation ribozyme variant] | 0.61 | 0.719 | 0.965 | 1.08 | 1.14 | 0.525
10 | CCACAGUUCUAGCAAUCGGUC [Fam1B.1 aminoacylation ribozyme variant] | 1.05 | 0.675 | 0.814 | 0.955 | 0.79 | 0.904
11 | CCACAUUUCAAGCAAUCAGUC [Fam1B.1 aminoacylation ribozyme variant] | 0.884 | 0.906 | 1.1 | 1 | 0.755 | 1.71
12 | CCACAUUUCAAGCAAUCGGAC [Fam1B.1 aminoacylation ribozyme variant] | 0.924 | 1.07 | 1.21 | 1.3 | 1.04 | 0.953
13 | CCACCCUCCAAGCAAUCGGUC [Fam1B.1 aminoacylation ribozyme variant] | 1.86 | 0.954 | 1.39 | 1.3 | 1.07 | 1.98
14 | CCACCCUUCAAGCAAUGGGUC [Fam1B.1 aminoacylation ribozyme variant] | 1.34 | 0.924 | 1.21 | 1.01 | 1.11 | 0.896
15 | CCACCCUUCAUGCAAUCGGUC [Fam1B.1 aminoacylation ribozyme variant] | 0.939 | 0.928 | 1.02 | 1.05 | 0.84 | 1.07
16 | CCACGCUUCAAGCAAGCGGUC [Fam1B.1 aminoacylation ribozyme variant] | 0.5 | 0.546 | 0.921 | 0.777 | 0.691 | 0.534
17 | CCACGCUUCAAGCACUCGGUC [Fam1B.1 aminoacylation ribozyme variant] | 0.81 | 0.819 | 1.29 | 0.855 | 0.938 | 0.769
18 | CCACGCUUCAAGCAGUCGGUC [Fam1B.1 aminoacylation ribozyme variant] | 0.91 | 0.887 | 1.33 | 0.755 | 1.03 | 1
19 | CCACGCUUCAAGCCAUCGGUC [Fam1B.1 aminoacylation ribozyme variant] | 0.848 | 1.31 | 1.67 | 1.05 | 0.915 | 0.912
20 | CCACUCUUCAAGCAACCGGUC [Fam1B.1 aminoacylation ribozyme variant] | 1.3 | 1.25 | 1.26 | 1.62 | 1.05 | 1.17
21 | CCACUCUUCAAGCAAUCGGAC [Fam1B.1 aminoacylation ribozyme variant] | 1.15 | 0.661 | 0.937 | 0.984 | 0.787 | 0.832
22 | CCACUCUUCAAGCAAUCUGUC [Fam1B.1 aminoacylation ribozyme variant] | 0.29 | 0.354 | 0.581 | 0.437 | 0.363 | 0.664
23 | CCACUCUUCAGGCAAUCGGUC [Fam1B.1 aminoacylation ribozyme variant] | 1.23 | 1.33 | 1.49 | 1.31 | 1.34 | 0.929
24 | CCACUUCAAACAAACGGUCUG [Fam1A.1 aminoacylation ribozyme variant] | 0.592 | 0.609 | 0.815 | 0.894 | 1.19 | 0.554
25 | CCACUUCAAACAAGCGGUCUG [Fam1A.1 aminoacylation ribozyme variant] | 1.34 | 1.26 | 0.896 | 1.12 | 1.07 | 0.647
26 | CCACUUUAAACAAUCGGUCUG [Fam1A.1 aminoacylation ribozyme variant] | 1.18 | 1.01 | 0.912 | 1.03 | 1.17 | 1.58

Row | Sequence | self-aminoacylation (biotinyl-Trp-oxazolone) | self-aminoacylation (biotinyl-Leu-oxazolone) | self-aminoacylation (biotinyl-Val-oxazolone) | self-aminoacylation (biotinyl-Ile-oxazolone) | self-aminoacylation (biotinyl-Met-oxazolone) | self-aminoacylation (biotinyl-Phe-oxazolone)
27 | CCAGACCUCAAGCAAUCGGUC [Fam1B.1 aminoacylation ribozyme variant] | 1.37 | 1.86 | 1.94 | 1.58 | 1.44 | 1.78
28 | CCAGACUUCAAGCAAUCAGUC [Fam1B.1 aminoacylation ribozyme variant] | 5.08 | 1.03 | 0.837 | 1.04 | 0.826 | 12.6
29 | CCAGACUUCAAGCAAUCGGUA [Fam1B.1 aminoacylation ribozyme variant] | 1.75 | 1.16 | 1.4 | 1.41 | 1.66 | 1.22
30 | CCAUACUUCAAGCAAUCGGCC [Fam1B.1 aminoacylation ribozyme variant] | 3.74 | 2.33 | 1.8 | 1.91 | 2.36 | 2.88
31 | CCGCACUUCAAGCAAUCGGUA [Fam1B.1 aminoacylation ribozyme variant] | 2.16 | 1.41 | 1.64 | 1.09 | 1.45 | 1.71
32 | CCGCACUUCAAGCAAUUGGUC [Fam1B.1 aminoacylation ribozyme variant] | 1.27 | 0.853 | 0.748 | 0.872 | 0.679 | 1.33
33 | CCGCACUUCAAGCCAUCGGUC [Fam1B.1 aminoacylation ribozyme variant] | 2.01 | 1.96 | 2.26 | 1.66 | 1.53 | 2.13
34 | CCUCACGUCAAGCAAUCGGUC [Fam1B.1 aminoacylation ribozyme variant] | 1.04 | 1.06 | 1.65 | 1.13 | 1.05 | 1.81
35 | CCUCACUUCAAGAAAUCGGUC [Fam1B.1 aminoacylation ribozyme variant] | 7.71 | 1.32 | 0.909 | 1.06 | 1.04 | 11
36 | CCUCACUUCAAGCAAACGGUC [Fam1B.1 aminoacylation ribozyme variant] | 0.839 | 0.625 | 0.843 | 0.665 | 0.481 | 1.34
37 | CCUCACUUCACGCAAUCGGUC [Fam1B.1 aminoacylation ribozyme variant] | 1.17 | 0.752 | 1.1 | 1.17 | 0.916 | 1.04
38 | CCUCACUUCUAGCAAUCGGUC [Fam1B.1 aminoacylation ribozyme variant] | 0.681 | 0.698 | 0.769 | 0.715 | 0.617 | 1.31
39 | CGACUUCGAACAAUCGGUCUG [Fam1A.1 aminoacylation ribozyme variant] | 0.992 | 0.978 | 1.1 | 1.14 | 1.04 | 1.83
40 | CUAAGUCAAACAAUCGGUCUG [Fam1A.1 aminoacylation ribozyme variant] | 0.887 | 0.87 | 0.784 | 0.854 | 0.885 | 1.08
41 | CUAAUACAAACAAUCGGUCUG [Fam1A.1 aminoacylation ribozyme variant] | 0.678 | 0.477 | 0.682 | 0.676 | 0.674 | 0.757
42 | CUAAUUCAAACAAUCGGUAUG [Fam1A.1 aminoacylation ribozyme variant] | 0.787 | 0.511 | 0.592 | 0.54 | 0.55 | 1.47
43 | CUAAUUCAAACAAUCGGUCGG [Fam1A.1 aminoacylation ribozyme variant] | 1.69 | 0.84 | 0.765 | 0.729 | 0.791 | 2.14
44 | CUAAUUCACACAAUCGGUCUG [Fam1A.1 aminoacylation ribozyme variant] | 0.598 | 0.85 | 0.771 | 0.912 | 0.874 | 0.759
45 | CUACACUUCAAGCAAACGGUC [Fam1B.1 aminoacylation ribozyme variant] | 0.452 | 0.525 | 0.563 | 0.576 | 0.546 | 0.776
46 | CUACACUUCAAGCAAUCGCUC [Fam1B.1 aminoacylation ribozyme variant] | 0.984 | 1.3 | 1.07 | 1.58 | 1.19 | 0.667
47 | CUACACUUCAAGCAAUCUGUC [Fam1B.1 aminoacylation ribozyme variant] | 0.283 | 0.273 | 0.433 | 0.322 | 0.382 | 0.801
48 | CUACACUUCAAGCAAUUGGUC [Fam1B.1 aminoacylation ribozyme variant] | 0.63 | 0.449 | 0.593 | 0.572 | 0.454 | 1.15
49 | CUACAUCAAACAAUCUGUCUG [Fam1A.1 aminoacylation ribozyme variant] | 0.497 | 0.624 | 0.736 | 0.722 | 0.533 | 0.795
50 | CUACAUCAAACAGUCGGUCUG [Fam1A.1 aminoacylation ribozyme variant] | 0.579 | 0.886 | 1.15 | 0.866 | 0.945 | 0.766
51 | CUACAUCAAACUAUCGGUCUG [Fam1A.1 aminoacylation ribozyme variant] | 0.949 | 0.898 | 1.04 | 1.05 | 0.962 | 1.04
